PubChem BioAssay AID1159578 – Peter MacCallum Cancer Centre, 2015
This is a random part of about 18,000 deposited reagents. About 1,030 of all reagents (5.7%) were called active. 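Inactive calls also include pools with fewer than 3300 nuclei, whose migration was not assessed.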 Raw values are not corrected between plates. Unmarked entries are inactive. Not all columns of the deposit are shown. No sequences are given here.

Purpose: 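siRNA pools altering how lymphatic endothelial cells close a scratch wound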 (primary screen)
System: human lymphatic endothelial cells
Knock-down reagent: siRNA pool against human genes, 40 nM
Time to read-out: 48 h after transfection
Measurement: 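Cells stained with dye and imaged after a scratch; covered wound area and nuclei counted, duplicates averaged, migration set against mock wells and turned into a robust z-score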
Direction: migration robust z-score: higher = faster migration into the scratch; nuclei per well: higher = more cells in the well
Call rule: 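Pools averaging fewer than 3300 nuclei are never called; remaining pools count as changed when migration robust z lies outside -2 to 2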
Meaning of the calls: active = migration changed; inactive = no migration change, or too few cells

no.	gene	migration robust z-score	migration class with cell-count check	nuclei per well, duplicate mean
1	ACOT6	1.14	migration z between -2 and 2; enough cells	5186
2	PLAAT4	-0.83	migration z between -2 and 2; enough cells	4986
3	ACOT4	1.79	migration z between -2 and 2; enough cells	5112
4	RHOBTB1	-0.52	migration z between -2 and 2; enough cells	4750
5	SURF6	0.8	migration z between -2 and 2; enough cells	6766
6	OR5A2	1.18	migration z between -2 and 2; enough cells	6115
7	PTGER2	0.96	migration z between -2 and 2; enough cells	5762
8	AMN	0.13	migration z between -2 and 2; enough cells	5746
9	TMEM79	-0.82	migration z between -2 and 2; enough cells	5620
10	MFSD8	-1.31	migration z between -2 and 2; enough cells	5889
11	CYP27B1	0.08	migration z between -2 and 2; enough cells	5764
12	RBM14	-0.65	migration z between -2 and 2; enough cells	7028
13	LARP1	-0.84	migration z between -2 and 2; enough cells	6066
14	CCDC62	0.38	migration z between -2 and 2; enough cells	6229
15	ZFAND2A	0.76	migration z between -2 and 2; enough cells	4731

3 entries already listed, ordered by “nuclei per well, duplicate mean”, highest first.
gene	migration robust z-score	migration class with cell-count check	nuclei per well, duplicate mean
SURF6	0.8	migration z between -2 and 2; enough cells	6766
OR5A2	1.18	migration z between -2 and 2; enough cells	6115
PTGER2	0.96	migration z between -2 and 2; enough cells	5762

Additional results follow:
no.	gene	migration robust z-score	migration class with cell-count check	nuclei per well, duplicate mean
16	PABPC1	1.4	migration z between -2 and 2; enough cells	5714
17	RAPGEF5	0.83	migration z between -2 and 2; enough cells	5373
18	C1QTNF12	-0.13	migration z between -2 and 2; enough cells	7134
19	TMEM237	-0.2	migration z between -2 and 2; enough cells	4926
20	KCNA1	0.94	migration z between -2 and 2; enough cells	4381
21	OR6B1	0.76	migration z between -2 and 2; enough cells	5032
22	FRZB	0.64	migration z between -2 and 2; enough cells	5279
23	OR8B2	-0.84	migration z between -2 and 2; enough cells	5960
